Assay results as given in patent US20140093884A1, “Process for Identifying Novel Anti-Inflammatory Molecules with Reduced Direct Transrepression of Genes Induced by Glucocorticoids” (UNIVERSITE DE STRASBOURG, priority 2011, published 2014).
These are yes or no findings as the source states them, for the method shown. Some entries that bind do so weakly or less than the wild type.

Chains of the proteins cited; added tags and fusions are not shown.
UniProt Q9WU42: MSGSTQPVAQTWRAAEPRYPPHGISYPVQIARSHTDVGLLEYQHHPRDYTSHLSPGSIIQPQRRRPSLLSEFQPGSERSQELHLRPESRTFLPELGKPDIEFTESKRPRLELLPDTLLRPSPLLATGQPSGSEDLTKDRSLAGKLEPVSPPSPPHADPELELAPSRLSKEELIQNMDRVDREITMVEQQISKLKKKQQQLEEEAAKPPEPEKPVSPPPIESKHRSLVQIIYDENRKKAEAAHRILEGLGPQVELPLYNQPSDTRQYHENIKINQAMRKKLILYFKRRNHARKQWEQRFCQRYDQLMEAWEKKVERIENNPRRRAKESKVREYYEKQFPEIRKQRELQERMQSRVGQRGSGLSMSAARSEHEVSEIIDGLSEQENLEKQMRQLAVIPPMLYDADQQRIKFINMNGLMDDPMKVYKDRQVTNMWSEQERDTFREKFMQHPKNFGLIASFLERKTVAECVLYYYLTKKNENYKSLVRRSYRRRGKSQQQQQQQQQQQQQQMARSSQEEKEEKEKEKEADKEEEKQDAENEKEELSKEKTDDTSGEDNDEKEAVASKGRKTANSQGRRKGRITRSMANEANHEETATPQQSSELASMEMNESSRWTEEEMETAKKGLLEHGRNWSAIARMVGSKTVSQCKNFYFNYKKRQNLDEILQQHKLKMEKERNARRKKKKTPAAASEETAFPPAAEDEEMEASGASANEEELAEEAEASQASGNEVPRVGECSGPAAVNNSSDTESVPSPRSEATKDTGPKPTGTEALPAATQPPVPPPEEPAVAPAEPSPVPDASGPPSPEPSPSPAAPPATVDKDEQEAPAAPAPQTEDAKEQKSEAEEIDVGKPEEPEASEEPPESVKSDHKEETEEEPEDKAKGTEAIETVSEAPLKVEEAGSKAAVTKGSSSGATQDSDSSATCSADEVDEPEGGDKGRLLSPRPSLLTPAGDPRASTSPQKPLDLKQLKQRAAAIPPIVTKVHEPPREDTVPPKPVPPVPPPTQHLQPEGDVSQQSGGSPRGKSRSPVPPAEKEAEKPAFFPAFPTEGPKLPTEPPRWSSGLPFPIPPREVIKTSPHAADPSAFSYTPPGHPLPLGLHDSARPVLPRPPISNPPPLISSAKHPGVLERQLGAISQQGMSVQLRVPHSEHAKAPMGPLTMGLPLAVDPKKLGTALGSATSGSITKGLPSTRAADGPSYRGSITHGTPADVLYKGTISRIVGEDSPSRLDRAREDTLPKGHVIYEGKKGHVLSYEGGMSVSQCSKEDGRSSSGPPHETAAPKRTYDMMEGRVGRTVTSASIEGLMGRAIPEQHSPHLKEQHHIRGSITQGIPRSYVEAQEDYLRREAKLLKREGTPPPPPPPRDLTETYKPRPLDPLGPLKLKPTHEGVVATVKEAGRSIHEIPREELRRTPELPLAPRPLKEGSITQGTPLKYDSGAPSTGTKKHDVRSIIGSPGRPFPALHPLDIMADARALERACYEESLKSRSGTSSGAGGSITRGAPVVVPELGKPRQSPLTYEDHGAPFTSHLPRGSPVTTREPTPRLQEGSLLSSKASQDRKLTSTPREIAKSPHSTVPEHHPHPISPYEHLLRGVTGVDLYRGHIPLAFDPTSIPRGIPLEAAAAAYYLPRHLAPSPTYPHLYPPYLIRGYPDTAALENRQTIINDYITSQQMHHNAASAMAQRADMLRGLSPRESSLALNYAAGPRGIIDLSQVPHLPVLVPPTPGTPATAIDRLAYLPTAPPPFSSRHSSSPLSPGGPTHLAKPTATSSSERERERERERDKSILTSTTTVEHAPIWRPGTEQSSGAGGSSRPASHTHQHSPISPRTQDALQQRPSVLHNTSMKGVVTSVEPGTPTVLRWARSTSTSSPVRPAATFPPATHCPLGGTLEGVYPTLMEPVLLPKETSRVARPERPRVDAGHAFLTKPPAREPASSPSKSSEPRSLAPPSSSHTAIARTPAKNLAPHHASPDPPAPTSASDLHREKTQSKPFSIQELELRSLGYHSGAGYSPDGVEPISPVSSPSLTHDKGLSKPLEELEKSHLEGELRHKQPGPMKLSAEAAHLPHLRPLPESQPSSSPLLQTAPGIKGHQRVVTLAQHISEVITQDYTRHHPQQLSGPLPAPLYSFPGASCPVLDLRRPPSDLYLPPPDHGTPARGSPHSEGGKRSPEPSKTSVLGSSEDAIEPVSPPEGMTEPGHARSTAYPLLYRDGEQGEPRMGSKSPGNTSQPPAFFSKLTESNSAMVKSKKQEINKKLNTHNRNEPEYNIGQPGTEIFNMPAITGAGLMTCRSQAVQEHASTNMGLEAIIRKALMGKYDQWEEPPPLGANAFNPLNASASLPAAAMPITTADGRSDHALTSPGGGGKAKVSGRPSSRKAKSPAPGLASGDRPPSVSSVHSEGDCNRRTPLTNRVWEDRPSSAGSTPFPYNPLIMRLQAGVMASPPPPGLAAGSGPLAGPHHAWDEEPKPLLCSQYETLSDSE
UniProt Q60974: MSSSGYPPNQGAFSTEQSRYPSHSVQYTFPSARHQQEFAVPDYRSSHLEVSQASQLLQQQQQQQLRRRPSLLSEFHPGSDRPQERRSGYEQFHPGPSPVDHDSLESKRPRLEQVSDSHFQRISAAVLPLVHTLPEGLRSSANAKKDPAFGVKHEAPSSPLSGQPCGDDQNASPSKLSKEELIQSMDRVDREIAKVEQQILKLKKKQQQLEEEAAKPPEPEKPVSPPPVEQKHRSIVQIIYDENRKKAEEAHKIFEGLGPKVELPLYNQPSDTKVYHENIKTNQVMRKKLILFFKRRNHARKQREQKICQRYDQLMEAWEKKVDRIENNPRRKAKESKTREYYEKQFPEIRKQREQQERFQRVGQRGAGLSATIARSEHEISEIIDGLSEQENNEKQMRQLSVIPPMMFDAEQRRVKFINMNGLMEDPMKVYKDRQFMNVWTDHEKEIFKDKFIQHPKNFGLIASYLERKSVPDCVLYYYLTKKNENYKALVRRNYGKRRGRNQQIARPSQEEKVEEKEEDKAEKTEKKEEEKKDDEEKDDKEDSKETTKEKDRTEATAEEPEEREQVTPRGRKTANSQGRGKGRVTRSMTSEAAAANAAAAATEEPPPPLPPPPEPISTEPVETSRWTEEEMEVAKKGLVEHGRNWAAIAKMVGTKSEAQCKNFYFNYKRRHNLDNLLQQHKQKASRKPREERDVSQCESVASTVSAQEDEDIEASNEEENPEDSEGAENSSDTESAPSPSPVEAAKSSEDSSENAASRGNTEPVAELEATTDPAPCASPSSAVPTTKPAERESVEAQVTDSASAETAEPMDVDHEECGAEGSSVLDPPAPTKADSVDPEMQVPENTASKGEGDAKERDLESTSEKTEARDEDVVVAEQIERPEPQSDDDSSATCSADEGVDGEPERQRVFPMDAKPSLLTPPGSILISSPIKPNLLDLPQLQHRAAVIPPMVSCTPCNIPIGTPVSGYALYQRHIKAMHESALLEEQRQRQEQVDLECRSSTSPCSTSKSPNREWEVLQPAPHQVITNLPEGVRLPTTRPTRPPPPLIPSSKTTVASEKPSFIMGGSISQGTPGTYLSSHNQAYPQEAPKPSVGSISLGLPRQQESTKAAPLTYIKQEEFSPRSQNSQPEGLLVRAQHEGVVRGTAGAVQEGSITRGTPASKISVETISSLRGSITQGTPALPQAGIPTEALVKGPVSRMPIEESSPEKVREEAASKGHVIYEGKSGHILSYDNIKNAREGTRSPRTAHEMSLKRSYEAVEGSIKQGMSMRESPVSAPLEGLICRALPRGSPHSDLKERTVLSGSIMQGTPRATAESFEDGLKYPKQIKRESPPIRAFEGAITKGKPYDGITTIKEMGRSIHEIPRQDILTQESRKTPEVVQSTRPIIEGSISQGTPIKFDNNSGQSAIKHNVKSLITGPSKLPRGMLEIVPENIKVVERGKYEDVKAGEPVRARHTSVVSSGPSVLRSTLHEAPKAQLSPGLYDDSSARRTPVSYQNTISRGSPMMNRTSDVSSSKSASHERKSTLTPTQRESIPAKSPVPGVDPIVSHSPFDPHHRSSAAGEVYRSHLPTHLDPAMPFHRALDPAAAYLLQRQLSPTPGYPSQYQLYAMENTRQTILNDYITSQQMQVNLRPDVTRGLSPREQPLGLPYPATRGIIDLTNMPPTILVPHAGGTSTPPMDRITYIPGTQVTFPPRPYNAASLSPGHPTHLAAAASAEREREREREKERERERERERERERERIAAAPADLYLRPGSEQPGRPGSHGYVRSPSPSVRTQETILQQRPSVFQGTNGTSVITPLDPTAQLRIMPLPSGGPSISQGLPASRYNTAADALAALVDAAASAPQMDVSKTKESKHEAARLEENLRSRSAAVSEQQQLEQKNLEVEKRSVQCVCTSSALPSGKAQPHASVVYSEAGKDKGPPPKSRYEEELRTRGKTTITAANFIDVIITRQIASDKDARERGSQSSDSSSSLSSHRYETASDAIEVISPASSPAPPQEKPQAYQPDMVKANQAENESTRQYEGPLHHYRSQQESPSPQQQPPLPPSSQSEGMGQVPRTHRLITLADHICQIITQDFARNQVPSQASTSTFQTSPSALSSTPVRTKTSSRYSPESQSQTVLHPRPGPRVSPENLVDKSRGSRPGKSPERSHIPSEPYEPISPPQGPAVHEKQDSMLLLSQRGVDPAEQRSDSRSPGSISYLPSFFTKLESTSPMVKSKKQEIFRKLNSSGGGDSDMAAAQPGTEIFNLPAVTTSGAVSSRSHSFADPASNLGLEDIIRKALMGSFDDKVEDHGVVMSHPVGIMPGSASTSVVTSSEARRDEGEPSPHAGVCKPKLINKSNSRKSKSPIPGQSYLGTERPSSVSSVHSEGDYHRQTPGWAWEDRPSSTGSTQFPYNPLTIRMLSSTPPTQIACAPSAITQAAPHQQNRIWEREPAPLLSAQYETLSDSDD
UniProt P06537: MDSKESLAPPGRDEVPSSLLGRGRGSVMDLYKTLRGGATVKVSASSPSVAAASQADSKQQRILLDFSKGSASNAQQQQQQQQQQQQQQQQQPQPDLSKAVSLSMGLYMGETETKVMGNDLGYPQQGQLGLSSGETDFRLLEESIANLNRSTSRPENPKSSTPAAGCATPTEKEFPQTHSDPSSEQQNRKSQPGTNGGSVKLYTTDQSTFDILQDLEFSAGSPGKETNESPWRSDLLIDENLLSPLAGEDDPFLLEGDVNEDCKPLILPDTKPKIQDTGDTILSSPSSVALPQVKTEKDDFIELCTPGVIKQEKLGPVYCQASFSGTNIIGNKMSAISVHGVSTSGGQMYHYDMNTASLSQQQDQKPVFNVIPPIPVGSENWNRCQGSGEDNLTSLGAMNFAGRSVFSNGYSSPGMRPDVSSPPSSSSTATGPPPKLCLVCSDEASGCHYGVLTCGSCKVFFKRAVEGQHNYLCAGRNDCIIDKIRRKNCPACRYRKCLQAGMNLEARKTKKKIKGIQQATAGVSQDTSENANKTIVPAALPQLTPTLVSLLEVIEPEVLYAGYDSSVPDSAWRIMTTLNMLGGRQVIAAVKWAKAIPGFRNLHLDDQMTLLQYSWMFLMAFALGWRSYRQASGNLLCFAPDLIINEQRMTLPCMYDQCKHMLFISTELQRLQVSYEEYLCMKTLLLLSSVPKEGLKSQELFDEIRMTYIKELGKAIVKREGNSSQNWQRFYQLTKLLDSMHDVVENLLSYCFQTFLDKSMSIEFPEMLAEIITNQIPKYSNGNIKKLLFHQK

Key:
[1] = target: SMRT corepressor, endogenous, in tissues of treated mice (mouse) (UniProt Q9WU42); assay: ChIP on minsr IR1 nGRE1 and 2, Dex-treated mice (co-occupancy of a DNA element)
[2] = target: NCoR corepressor, endogenous, in tissues of treated mice (mouse) (UniProt Q60974); assay: as above
[3] = target: SMRT corepressor, endogenous, in tissues of treated mice (mouse) (UniProt Q9WU42); assay: ChIP on nGRE regions, mice treated with RU24858 or Dex (co-occupancy of a DNA element)
[4] = target: NCoR corepressor, endogenous, in tissues of treated mice (mouse) (UniProt Q60974); assay: as above
[5] = target: SMRT corepressor, endogenous, in tissues of treated mice (mouse) (UniProt Q9WU42); assay: ChIP on mK5 IR1 nGRE3 region, epidermis of Dex-treated mice (co-occupancy of a DNA element)

Measured: binding

glucocorticoid receptor (GR), endogenous, in tissues of Dex- or RU24858-treated mice (from UniProt P06537 1-792)
binds: all assays above
